No constants are given. Whether binding was seen depends on the method and setting. For part of these data: Binding calls can cover weak binding; strength is not graded here.

In assay [1] the target is NRZ (zebrafish pro-survival Bcl-2 protein), lacking the 28 C-terminal residues (zebrafish (Danio rerio)). Briefly: ITC; MicroCal iTC200, 25 °C; NRZ (wt, D79A or R86A) at 30 μM in 25 mM HEPES pH 7.5, 150 mM NaCl, 2 mM BME; BH3 peptide at 300 μM titrated in 19 injections of 2.0 μl; triplicate; both purified. Background: ITC needs no label: the signal is the heat of the interaction.

Assay [2] has the same target. Briefly: crystal structure; NRZ: zBad BH3 complex reconstituted at 1:1.25 molar ratio, crystallised by sitting drop at 20 °C in 0.2 M sodium fluoride, 0.1 M Bis-Tris propane pH 6.5, 20% PEG 3350; space group P6_(3); both purified.

For DGGTMENLSRRLKVTSNLFDIMSGQT [zBeclin BH3 motif peptide], the binding result in assay [1] was “no binding (tested: 300 μM peptide titrated into 30 μM NRZ)”.

AQSVETLIGQKLQLIGDQFYQEHIMH [zBmf BH3 motif peptide]: the binding entry in assay [1] is “no binding (tested: 300 μM peptide titrated into 30 μM NRZ)”.

Regarding ALWAAKKYGQQLRRMSDEFDKGQMKR [zBad BH3 motif peptide], the binding entry in assay [2] is on record as “binds”.

(Values after article PMC6148235, “A structural investigation of NRZ mediated apoptosis regulation in zebrafish” (Cell Death & Disease, 2018).)
